From paper PMC5996148 come the findings set out here.

Some test systems named below: NA (human); NAGK (human); NAPG (human).
What all share (assay): protein microarray (ProtoArray v5.0), streptavidin-Alexa Fluor 647
Common to all, as to conditions: 3'-biotin; 20 mM Tris (pH 7.5), 5 mM MgCl2, 100 mM KCl, 0.1% Tween-20, A/T-rich and random oligonucleotide blockers; temperature not stated; high values mean tight binding

Assay [1] deals with Mitogen-activated protein kinase 10 (human).
The test system of assay [2] is Mitogen-activated protein kinase 14 (human).
Assay [3] relates to Mitogen-activated protein kinase kinase kinase 2 (human).
In assay [4] the test system is Mps one binder kinase activator-like 3 (human).
Assay [5] relates to Myelin basic protein (human).
For assay [6], the system named is Myosin light chain 2, lymphocyte-specific (human).
Assay [7] deals with Myosin light chain kinase, smooth muscle (human).

This is one part of the list.

Regarding “GGGGACAGGGGTATGGGGAGGGG [G4-3 biotinylated (CtG)]”, the binding signal in assay [1] was -0.334 z-score; in [2] it was -0.313 z-score; in assay [3], -0.281 z-score; in [4], -0.307 z-score; in [5] it was -0.337 z-score; in [6] it was -0.33 z-score. For the same sequence, the binding signal in assay [7] was -0.335 z-score; in the assay with NA (human) it was 4.96 z-score; in the assay on NAGK (human), -0.329 z-score; in the assay with NAPG (human) it was -0.322 z-score.
